The record followed here is patent publication US9134318B2, “Detection of oxidized polypeptides” (Purdue Research Foundation, priority 2009, dated 2015).

This data set has as its system carbonylated plasma proteins. The experiment in a line: iTRAQ and MALDI/TOF/TOF quantitative comparison of avidin-selected carbonylated proteins, breast cancer patients vs controls (Table 8). Also on record: species or system Homo sapiens. Conditions: avidin-selected carbonylated protein in plasma, breast cancer patient vs matched control, iTRAQ; repeated lines of a protein = different donors; negative = lower in cancer.

B1: Apolipoprotein C-IV precursor (protein, UniProt P55056 28-127, looked up)
pro-form: QPEAQEGTLSPPPKLKMSRWSLVRGRMKELLETVVNRTRDGWQWFWSPSTFRGFMQTYYDDHLRDLGPLTKAWFLESKDSLLKKTHSLCPRLVCGDKDQG
modifications: pro-form
Turning to B1, the “Breast cancer/control (fold change)” value was determined as 2.2 fold change.

B2: Sorting nexin-13 (protein, UniProt Q9Y5W8 1-968, looked up)
Sorting nexin-13: MLTEASLSIWGWGSLGIVLFLITFGPFVIFYLTFYILCFVGGGLVVTLLFGKTNSEKYLEQCEHSFLPPTSPGVPKCLEEMKREARTIKIDRRLTGANIIDEPLQQVIQFSLRDYVQYWYYTLSDDESFLLEIRQTLQNALIQFATRSKEIDWQPYFTTRIVDDFGTHLRVFRKAQQKITEKDDQVKGTAEDLVDTFFEVEVEMEKEVCRDLVCTSPKDEEGFLRDLCEVLLYLLLPPGDFQNKIMRYFVREILARGILLPLINQLSDPDYINQYVIWMIRDSNCNYEAFMNIIKLSDNIGELEAVRDKAAEELQYLRSLDTAGDDINTIKNQINSLLFVKKVCDSRIQRLQSGKEINTVKLAANFGKLCTVPLDSILVDNVALQFFMDYMQQTGGQAHLFFWMTVEGYRVTAQQQLEVLLSRQRDGKHQTNQTKGLLRAAAVGIYEQYLSEKASPRVTVDDYLVAKLADTLNHEDPTPEIFDDIQRKVYELMLRDERFYPSFRQNALYVRMLAELDMLKDPSFRGSDDGDGESFNGSPTGSINLSLDDLSNVSSDDSVQLHAYISDTVYADYDPYAVAGVCNDHGKTYALYAITVHRRNLNSEEMWKTYRRYSDFHDFHMRITEQFESLSSILKLPGKKTFNNMDRDFLEKRKKDLNAYLQLLLAPEMMKASPALAHYVYDFLENKAYSKGKGDFARKMDTFVNPLRNSMRNVSNAVKSLPDSLAEGMTKMSDNMGKMSERLGQDIKQSFFKVPPLIPKTDSDPEHRRVSAQLDDNVDDNIPLRVMLLLMDEVFDLKERNQWLRRNIKNLLQQLIRATYGDTINRKIVDHVDWMTSPEQVADSVKRFRDAFWPNGILAEAVPCRDKSIRMRTRVAGKTKLLAIMPDELKHIIGAETTRKGILRVFEMFQHNQLNRRMVYVFLEGFLETLFPQYKFRELFNKLHSRSKQMQKYKQKLQTTQAPSLQKR
For the molecule B2, the “Breast cancer/control (fold change)” value is −3.4 fold change.

B3: Apolipoprotein C-I precursor (protein, UniProt P02654 1-83, looked up)
chain: MRLFLSLPVLVVVLSIVLEGPAPAQGTPDVSSALDKLKEFGNTLEDKARELISRIKQSELSAKMREWFSETFQKVKEKLKIDS
modifications: full-length oxidized
B3: the “Breast cancer/control (fold change)” value is −2.0 fold change.

B4: U6 snRNA-associated Sm-like protein LSm2 (protein, UniProt Q9Y333 1-95, looked up)
U6 snRNA-associated Sm-like …: MLFYSFFKSLVGKDVVVELKNDLSICGTLHSVDQYLNIKLTDISVTDPEKYPHMLSVKNCFIRGSVVRYVQLPADEVDTQLLQDAARKEALQQKQ
Consider B4, for which the “Breast cancer/control (fold change)” value is −3.6 fold change.

B5: Ubiquitin carboxyl-terminal hydrolases 43 (protein, UniProt Q70EL4 1-1123, looked up)
Ubiquitin carboxyl-terminal …: MDLGPGDAAGGGPLAPRPRRRRSLRRLFSRFLLALGSRSRPGDSPPRPQPGHCDGDGEGGFACAPGPVPAAPGSPGEERPPGPQPQLQLPAGDGARPPGAQGLKNHGNTCFMNAVVQCLSNTDLLAEFLALGRYRAAPGRAEVTEQLAALVRALWTREYTPQLSAEFKNAVSKYGSQFQGNSQHDALEFLLWLLDRVHEDLEGSSRGPVSEKLPPEATKTSENCLSPSAQLPLGQSFVQSHFQAQYRSSLTCPHCLKQSNTFDPFLCVSLPIPLRQTRFLSVTLVFPSKSQRFLRVGLAVPILSTVAALRKMVAEEGGVPADEVILVELYPSGFQRSFFDEEDLNTIAEGDNVYAFQVPPSPSQGTLSAHPLGLSASPRLAAREGQRFSLSLHSESKVLILFCNLVGSGQQASRFGPPFLIREDRAVSWAQLQQSILSKVRHLMKSEAPVQNLGSLFSIRVVGLSVACSYLSPKDSRPLCHWAVDRVLHLRRPGGPPHVKLAVEWDSSVKERLFGSLQEERAQDADSVWQQQQAHQQHSCTLDECFQFYTKEEQLAQDDAWKCPHCQVLQQGMVKLSLWTLPDILIIHLKRFCQVGERRNKLSTLVKFPLSGLNMAPHVAQRSTSPEAGLGPWPSWKQPDCLPTSYPLDFLYDLYAVCNHHGNLQGGHYTAYCRNSLDGQWYSYDDSTVEPLREDEVNTRGAYILFYQKRNSIPPWSASSSMRGSTSSSLSDHWLLRLGSHAGSTRGSLLSWSSAPCPSLPQVPDSPIFTNSLCNQEKGGLEPRRLVRGVKGRSISMKAPTTSRAKQGPFKTMPLRWSFGSKEKPPGASVELVEYLESRRRPRSTSQSIVSLLTGTAGEDEKSASPRSNVALPANSEDGGRAIERGPAGVPCPSAQPNHCLAPGNSDGPNTARKLKENAGQDIKLPRKFDLPLTVMPSVEHEKPARPEGQKAMNWKESFQMGSKSSPPSPYMGFSGNSKDSRRGTSELDRPLQGTLTLLRSVFRKKENRRNERAEVSPQVPPVSLVSGGLSPAMDGQAPGSPPALRIPEGLARGLGSRLERDVWSAPSSLRLPRKASRAPRGSALGMSQRTVPGEQASYGTFQRVKYHTLSLGRKKTLPESSF
With B5, the “Breast cancer/control (fold change)” value is 2.2 fold change.

B6: Apolipoprotein-L1 precursor (protein, UniProt O14791 28-398, looked up)
pro-form: EEAGARVQQNVPSGTDTGDPQSKPLGDWAAGTMDPESSIFIEDAIKYFKEKVSTQNLLLLLTDNEAWNGFVAAAELPRNEADELRKALDNLARQMIMKDKNWHDKGQQYRNWFLKEFPRLKSELEDNIRRLRALADGVQKVHKGTTIANVVSGSLSISSGILTLVGMGLAPFTEGGSLVLLEPGMELGITAALTGITSSTMDYGKKWWTQAQAHDLVIKSLDKLKEVREFLGENISNFLSLAGNTYQLTRGIGKDIRALRRARANLQSVPHASASRPRVTEPISAESGEQVERVNEPSILEMSRGVKLTDVAPVSFFLVLDVVYLVYESKHLHEGAKSETAEELKKVAQELEEKLNILNNNYKILQADQEL
modifications: pro-form
As to B6, the “Breast cancer/control (fold change)” value stood at 5.0 fold change.

B7: C4b-binding protein alpha chain precursor (protein, UniProt P04003 1-597, looked up)
chain: MHPPKTPSGALHRKRKMAAWPFSRLWKVSDPILFQMTLIAALLPAVLGNCGPPPTLSFAAPMDITLTETRFKTGTTLKYTCLPGYVRSHSTQTLTCNSDGEWVYNTFCIYKRCRHPGELRNGQVEIKTDLSFGSQIEFSCSEGFFLIGSTTSRCEVQDRGVGWSHPLPQCEIVKCKPPPDIRNGRHSGEENFYAYGFSVTYSCDPRFSLLGHASISCTVENETIGVWRPSPPTCEKITCRKPDVSHGEMVSGFGPIYNYKDTIVFKCQKGFVLRGSSVIHCDADSKWNPSPPACEPNSCINLPDIPHASWETYPRPTKEDVYVVGTVLRYRCHPGYKPTTDEPTTVICQKNLRWTPYQGCEALCCPEPKLNNGEITQHRKSRPANHCVYFYGDEISFSCHETSRFSAICQGDGTWSPRTPSCGDICNFPPKIAHGHYKQSSSYSFFKEEIIYECDKGYILVGQAKLSCSYSHWSAPAPQCKALCRKPELVNGRLSVDKDQYVEPENVTIQCDSGYGVVGPQSITCSGNRTWYPEVPKCEWETPEGCEQVLTGKRLMQCLPNPEDVKMALEVYKLSLEIEQLELQRDSARQSTLDKEL
modifications: full-length oxidized
B7: the “Breast cancer/control (fold change)” value turned out to be 1.7 fold change.

B8: WD repeat protein 89 (protein, UniProt Q96FK6 1-387, looked up)
WD repeat-containing protein …: MEKIEEQFANLHIVKCSLGTKEPTYLLGIDTSKTVQAGKENLVAVLCSNGSIRIYDKERLNVLREFSGYPGLLNGVRFANSCDSVYSACTDGTVKCWDARVAREKPVQLFKGYPSNIFISFDINCNDHIICAGTEKVDDDALLVFWDARMNSQNLSTTKDSLGAYSETHSDDVTQVRFHPSNPNMVVSGSSDGLVNVFDINIDNEEDALVTTCNSISSVSCIGWSGKGYKQIYCMTHDEGFYWWDLNHLDTDEPVTRLNIQDVREVVNMKEDALDYLIGGLYHEKTDTLHVIGGTNKGRIHLMNCSMSGLTHVTSLQGGHAATVRSFCWNVQDDSLLTGGEDAQLLLWKPGAIEKTFTKKESMKIASSVHQRVRVHSNDSYKRRKKQ
As for B8, the “Breast cancer/control (fold change)” value was −4.5 fold change.
